Our source for the binding values is paper PMC5527091.

These are yes or no findings as the source states them, for the method shown. Binding seen in cells or lysates may run through a third protein. Binding calls can cover weak binding; strength is not graded here.

In this experiment the target is Akt (mouse (endogenous in EOMA)). The experiment in a line: co-IP; EOMA cells treated with or without platelets for 30 minutes, lysed; immunoprecipitation with anti-Akt antibody (Cell Signaling Technology #4691) using the Pierce Crosslink IP Kit; normal rabbit IgG as negative control; integrin β3 detected by Western blot. On the technique in general: In western blotting, separated proteins are transferred to a membrane and probed.

B1: integrin β3 (protein, UniProt O54890 26-787)
chain: ESNICTTRGVNSCQQCLAVSPVCAWCSDETLSQGSPRCNLKENLLKDNCAPESIEFPVSEAQILEARPLSSKGSGSSAQITQVSPQRIALRLRPDDSKIFSLQVRQVEDYPVDIYYLMDLSFSMKDDLSSIQTLGTKLASQMRKLTSNLRIGFGAFVDKPVSPYMYISPPQAIKNPCYNMKNACLPMFGYKHVLTLTDQVSRFNEEVKKQSVSRNRDAPEGGFDAIMQATVCDEKIGWRNDASHLLVFTTDAKTHIALDGRLAGIVLPNDGHCHIGTDNHYSASTTMDYPSLGLMTEKLSQKNINLIFAVTENVVSLYQNYSELIPGTTVGVLSDDSSNVLQLIVDAYGKIRSKVELEVRDLPEELSLSFNATCLNNEVIPGLKSCVGLKIGDTVSFSIEAKVRGCPQEKEQSFTIKPVGFKDSLTVQVTFDCDCACQAFAQPSSPRCNNGNGTFECGVCRCDQGWLGSMCECSEEDYRPSQQEECSPKEGQPICSQRGECLCGQCVCHSSDFGKITGKYCECDDFSCVRYKGEMCSGHGQCNCGDCVCDSDWTGYYCNCTTRTDTCMSTNGLLCSGRGNCECGSCVCVQPGSYGDTCEKCPTCPDACSFKKECVECKKFNRGTLHEENTCSRYCRDDIEQVKELTDTGKNAVNCTYKNEDDCVVRFQYYEDTSGRAVLYVVEEPECPKGPDILVVLLSVMGAILLIGLATLLIWKLLITIHDRKEFAKFEEERARAKWDTANNPLYKEATSTFTNITYRGT
As for B1, the binding entry is listed as “binds”.
